Binding data for one substance are collected here from publication PMC5007356.

By UniProt entry, the sequences of proteins in these tests, tags left out.
UniProt Q9UM11: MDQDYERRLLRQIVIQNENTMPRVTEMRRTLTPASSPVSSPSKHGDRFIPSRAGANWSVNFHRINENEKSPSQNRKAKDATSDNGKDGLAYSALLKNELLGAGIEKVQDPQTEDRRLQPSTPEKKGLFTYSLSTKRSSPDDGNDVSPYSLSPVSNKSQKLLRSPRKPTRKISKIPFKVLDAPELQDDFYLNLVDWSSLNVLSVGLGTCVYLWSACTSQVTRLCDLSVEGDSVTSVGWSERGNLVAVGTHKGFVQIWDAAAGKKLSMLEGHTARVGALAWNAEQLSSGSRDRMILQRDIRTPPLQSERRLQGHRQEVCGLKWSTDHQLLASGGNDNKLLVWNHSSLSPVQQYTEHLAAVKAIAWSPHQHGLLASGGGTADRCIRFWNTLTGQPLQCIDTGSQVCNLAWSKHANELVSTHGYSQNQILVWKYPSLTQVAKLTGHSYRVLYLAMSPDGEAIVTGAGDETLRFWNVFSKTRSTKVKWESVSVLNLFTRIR
UniProt Q8TEP8: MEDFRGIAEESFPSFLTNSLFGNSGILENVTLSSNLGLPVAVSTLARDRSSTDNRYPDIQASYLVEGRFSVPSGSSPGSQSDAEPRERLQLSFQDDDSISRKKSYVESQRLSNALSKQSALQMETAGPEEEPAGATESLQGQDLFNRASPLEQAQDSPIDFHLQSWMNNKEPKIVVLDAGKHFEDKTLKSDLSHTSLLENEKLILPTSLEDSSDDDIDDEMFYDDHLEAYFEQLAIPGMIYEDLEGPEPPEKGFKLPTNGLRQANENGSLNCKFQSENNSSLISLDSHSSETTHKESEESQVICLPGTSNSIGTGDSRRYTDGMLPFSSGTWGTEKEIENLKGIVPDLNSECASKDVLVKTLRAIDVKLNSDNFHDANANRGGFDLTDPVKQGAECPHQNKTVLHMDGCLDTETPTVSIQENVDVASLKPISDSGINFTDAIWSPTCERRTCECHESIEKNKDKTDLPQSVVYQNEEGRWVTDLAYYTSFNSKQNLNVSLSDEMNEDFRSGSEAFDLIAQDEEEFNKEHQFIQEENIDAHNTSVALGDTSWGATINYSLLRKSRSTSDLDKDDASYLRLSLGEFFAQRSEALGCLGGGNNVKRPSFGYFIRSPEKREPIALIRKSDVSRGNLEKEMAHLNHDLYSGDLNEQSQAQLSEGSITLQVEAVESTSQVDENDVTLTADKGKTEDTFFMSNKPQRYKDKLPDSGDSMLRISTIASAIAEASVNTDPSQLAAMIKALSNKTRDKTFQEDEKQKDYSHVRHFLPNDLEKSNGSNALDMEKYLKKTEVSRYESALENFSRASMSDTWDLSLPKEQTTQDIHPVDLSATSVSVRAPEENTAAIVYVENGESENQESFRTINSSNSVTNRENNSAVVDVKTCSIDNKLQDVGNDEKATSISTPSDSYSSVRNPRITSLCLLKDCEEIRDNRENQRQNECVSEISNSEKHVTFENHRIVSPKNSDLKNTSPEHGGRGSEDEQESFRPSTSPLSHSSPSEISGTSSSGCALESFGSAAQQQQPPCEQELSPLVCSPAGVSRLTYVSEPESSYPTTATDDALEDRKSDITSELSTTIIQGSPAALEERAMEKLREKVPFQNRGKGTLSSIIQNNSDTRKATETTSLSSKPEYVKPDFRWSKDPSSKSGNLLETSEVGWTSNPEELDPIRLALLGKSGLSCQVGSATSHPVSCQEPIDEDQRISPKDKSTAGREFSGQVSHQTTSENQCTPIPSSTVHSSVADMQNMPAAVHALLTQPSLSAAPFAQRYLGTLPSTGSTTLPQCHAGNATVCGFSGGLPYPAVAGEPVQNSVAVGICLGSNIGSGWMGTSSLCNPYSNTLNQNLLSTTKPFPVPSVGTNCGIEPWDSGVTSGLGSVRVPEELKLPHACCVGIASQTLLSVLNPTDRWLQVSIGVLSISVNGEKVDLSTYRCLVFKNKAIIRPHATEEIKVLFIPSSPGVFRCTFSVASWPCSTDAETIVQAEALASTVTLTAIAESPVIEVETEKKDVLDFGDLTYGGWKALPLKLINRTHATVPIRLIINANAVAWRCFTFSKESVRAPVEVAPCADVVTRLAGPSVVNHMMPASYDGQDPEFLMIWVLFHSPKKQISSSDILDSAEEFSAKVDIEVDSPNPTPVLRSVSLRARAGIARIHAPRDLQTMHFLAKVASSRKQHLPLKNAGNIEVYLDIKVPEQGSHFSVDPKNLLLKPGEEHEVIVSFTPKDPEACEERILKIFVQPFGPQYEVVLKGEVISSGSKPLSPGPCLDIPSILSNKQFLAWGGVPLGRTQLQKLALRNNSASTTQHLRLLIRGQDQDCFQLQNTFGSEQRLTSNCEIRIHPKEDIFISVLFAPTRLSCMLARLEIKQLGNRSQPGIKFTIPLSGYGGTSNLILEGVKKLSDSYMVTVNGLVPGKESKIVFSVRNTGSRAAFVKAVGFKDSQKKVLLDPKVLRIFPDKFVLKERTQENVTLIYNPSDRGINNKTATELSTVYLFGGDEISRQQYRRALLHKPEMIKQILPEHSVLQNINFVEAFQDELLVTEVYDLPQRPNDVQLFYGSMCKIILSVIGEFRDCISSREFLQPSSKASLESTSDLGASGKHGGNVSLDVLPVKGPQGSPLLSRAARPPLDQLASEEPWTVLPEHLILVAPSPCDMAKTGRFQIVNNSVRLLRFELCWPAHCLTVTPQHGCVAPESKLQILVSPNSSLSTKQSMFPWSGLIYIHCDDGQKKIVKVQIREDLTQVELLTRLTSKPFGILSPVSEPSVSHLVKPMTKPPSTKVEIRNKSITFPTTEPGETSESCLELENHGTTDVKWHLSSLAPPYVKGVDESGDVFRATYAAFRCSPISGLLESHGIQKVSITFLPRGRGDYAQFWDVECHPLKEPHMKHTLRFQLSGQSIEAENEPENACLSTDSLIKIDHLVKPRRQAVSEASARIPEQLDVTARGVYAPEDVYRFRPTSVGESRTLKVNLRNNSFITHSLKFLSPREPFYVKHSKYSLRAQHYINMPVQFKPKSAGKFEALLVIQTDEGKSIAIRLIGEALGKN

No constants are given. Whether binding was seen depends on the method and setting. In cells and extracts the contact can be indirect.

The target of test [1] is Cdh1 (human) (human) (UniProt Q9UM11). Description: co-IP; immunoprecipitation of a GFP-tagged protein with GFP-Trap-A beads (Supplementary Fig. 5e); human proteins.
Test [2] has the same target. The test is described as follows: co-IP; antibody-coupled PrA Dynabeads (Supplementary Fig. 5d); human proteins; extracts incubated with the beads for 2 h at 4 °C.

Take Cep192 (from UniProt Q8TEP8 1-2537): the binding result with Cdh1 (human) (human) [1] and with Cdh1 (human) (human) [2] was “no binding” in each case.
